Experimental data as given in paper PMC10526209, “Systematic Exploration of Functional Group Relevance for Anti-Leishmanial Activity of Anisomycin” (Biomedicines, 2023).

System: L. tarentolae lysate
Experiment: Cell-free transcription-translation inhibition in L. tarentolae lysate
Type: biochemical
Conditions: for SI (selectivity index) = IC50 L. tarentolae/IC50 RR: ratio of translation IC50 values; for fold less active than anisomycin against Leishmania: translation inhibition, relative to anisomycin
Experimental: Cytosolic ribosome susceptibility and selectivity were assessed through three different cell-free transcription-translation assays: (1) An extract of E. coli (S30, Promega, Madison, WI, USA), (2) in rabbit reticulocytes (Promega), and (3) in L. tarentolae lysate (Jena Bioscience, Jena, Germany). Three plasmids, compatible with each extract system, were used in this study: pBESTlucTM (Promega) for the prokaryotic translation assay, Luciferase T7 DNA (Promega) for the reticulocytes, and pLEXSY-invitro2-EGFP (Jena Bioscience) for Leishmania. Firefly luciferase was used as a reporter gene for the bacterial and reticulocyte systems, and EGFP for Leishmania. […] Assays were performed in white polystyrene 96-well flat-bottom plates (Nunc, Roskilde, Denmark) for luciferase and black polystyrene 384-well flat-bottom plates (Greiner, Kremsmunster, Austria) for EGFP. Incubation times were 60 min at 37 °C, 90 min at 30 °C, and 120 min at 26 °C for the bacterial, reticulocyte, and Leishmania systems, respectively. Reactions were stopped by quick snap cooling followed by a 5 min incubation on ice. Luciferase activity was measured for each well following the addition of 50 μL of Luciferase Assay reagent (Promega, Madison, WI, USA) with an automatic reagent injector (Tecan, Mannedorf, Switzerland) by recording the chemical-luminescence signal. EGFP fluorescence (λex = 488 nm; λem = 507 nm) was recorded on a Tecan Infinite R®F200 microplate reader (Tecan). Extracts lacking the circular DNA template were used as a negative control to calculate the fluorescence/chemical luminescence background. Reaction mixtures without compounds were used as positive controls and were regarded as 100% translation. Paromomycin was used as a control reagent in all assays. At least six different concentrations were used to plot each translation inhibition curve; experiments were performed in three independent repeats in duplicate. Half maximal inhibition concentrations (IC50) values were calculated from the concentration-response fitting curves using GraFit7.0.3 software.

| Compound | SI (selectivity index) = IC50 L. tarentolae/IC50 RR | fold less active than anisomycin against Leishmania [fold] |
| --- | --- | --- |
| CC(=O)O[C@@H]1[C@@H](O)CN[C@@H]1Cc1ccc(OC(C)C)cc1 [Analog 22a, (2R,3S,4S)-4-hydroxy-2-(4-iso-propoxybenzyl)-pyrrolidin-3-yl acetate] | 1.2 | 2 |
| CC(=O)O[C@@H]1[C@@H](O)CN[C@@H]1Cc1ccc(OCc2ccccc2)cc1 [Analog 22c, (2R,3S,4S)-4-hydroxy-2-(4-benzyloxybenzyl)-pyrrolidin-3-yl acetate] | 8.8 | 14 |
| COc1ccc(C[C@H]2NC[C@H](O)[C@H]2OC)cc1.Cl [Analog 11, (2R,3S,4S)-3-methoxy-4-hydroxy-2-(4-methoxybenzyl)-pyrrolidine hydrochloride] | 0.3 |  |
| NC[C@@H]1O[C@H](O[C@H]2[C@@H](O)[C@H](O[C@@H]3[C@@H](O)[C@H](N)C[C@H](N)[C@H]3O[C@H]3O[C@H](CO)[C@@H](O)[C@H](O)[C@H]3N)O[C@@H]2CO)[C@H](N)[C@@H](O)[C@@H]1O [Paromomycin, reference compound] | 0.2 |  |
| CC(=O)O[C@@H]1[C@@H](O)CN[C@@H]1Cc1ccc(O)cc1 [Analog 17, (2R,3S,4S)-4-hydroxy-2-(4-hydroxybenzyl)-pyrrolidin-3-yl acetate] | 8.6 |  |
| CCCCCCCCOc1ccc(C[C@H]2NC[C@H](O)[C@H]2OC(C)=O)cc1 [Analog 22b, (2R,3S,4S)-4-hydroxy-2-(4-octyloxybenzyl)-pyrrolidin-3-yl acetate] | 3.5 |  |
